Results: article PMC4871590
No constants are given. Whether binding was seen depends on the method and setting. Binding seen in cells or lysates may run through a third protein. For part of these data: Binding can be weak; no strength is given. Where a sequence is shown, tags or fusion partners need not be part of it.

Columns and labels:
[1] = molecular target: T1, GFP-B’ξ (Arabidopsis PP2A B’ξ subunit) (Arabidopsis thaliana) (UniProt Q9SV41); assay: co-IP; GFP-IP: GFP fusions pulled down with anti-GFP polyclonal antibody and protein A-agarose from lysates of N. benthamiana leaves; co-precipitated AvrE1-HA fragments or HA-RIN4 detected with anti-HA, His-HopM1 (induced with Dex, 6 h) with anti-His; lysis buffer 50 mM Tris-HCl pH 7.5, 150 mM NaCl, 1% Nonidet P40, 0.5% sodium deoxycholate, 5 mM DTT; 4°C
T1 sequence: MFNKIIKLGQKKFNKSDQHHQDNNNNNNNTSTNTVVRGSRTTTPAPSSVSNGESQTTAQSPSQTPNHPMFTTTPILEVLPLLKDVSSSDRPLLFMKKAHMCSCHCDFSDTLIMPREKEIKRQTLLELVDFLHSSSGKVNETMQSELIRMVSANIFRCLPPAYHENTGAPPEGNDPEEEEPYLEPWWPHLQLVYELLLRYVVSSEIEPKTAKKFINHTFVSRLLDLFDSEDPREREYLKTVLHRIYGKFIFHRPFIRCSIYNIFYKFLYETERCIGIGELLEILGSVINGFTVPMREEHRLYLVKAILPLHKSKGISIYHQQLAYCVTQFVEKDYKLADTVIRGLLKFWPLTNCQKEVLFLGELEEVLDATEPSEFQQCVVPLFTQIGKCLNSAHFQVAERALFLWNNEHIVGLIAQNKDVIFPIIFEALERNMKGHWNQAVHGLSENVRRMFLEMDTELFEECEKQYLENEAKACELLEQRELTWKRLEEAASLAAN

[2] = molecular target: T2, GFP-B’η (Arabidopsis PP2A B’η subunit) (Arabidopsis thaliana) (UniProt Q9LU89); assay: as above
T2 sequence: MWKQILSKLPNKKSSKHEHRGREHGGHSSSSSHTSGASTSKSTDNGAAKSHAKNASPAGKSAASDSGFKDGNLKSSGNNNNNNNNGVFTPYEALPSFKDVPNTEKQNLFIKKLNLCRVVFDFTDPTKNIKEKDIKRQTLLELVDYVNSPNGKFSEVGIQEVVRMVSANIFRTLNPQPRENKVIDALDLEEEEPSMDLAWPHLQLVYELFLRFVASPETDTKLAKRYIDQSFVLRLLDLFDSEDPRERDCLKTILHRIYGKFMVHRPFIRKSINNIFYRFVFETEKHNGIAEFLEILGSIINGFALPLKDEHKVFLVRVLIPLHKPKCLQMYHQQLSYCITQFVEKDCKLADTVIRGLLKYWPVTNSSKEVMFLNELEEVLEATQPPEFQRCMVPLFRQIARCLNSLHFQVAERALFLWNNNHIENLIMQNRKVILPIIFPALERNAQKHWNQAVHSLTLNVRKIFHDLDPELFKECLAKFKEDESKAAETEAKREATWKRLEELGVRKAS

[3] = molecular target: T3, GFP-B’β (Arabidopsis PP2A B’β subunit) (Arabidopsis thaliana) (UniProt O04376); assay: as above
T3 sequence: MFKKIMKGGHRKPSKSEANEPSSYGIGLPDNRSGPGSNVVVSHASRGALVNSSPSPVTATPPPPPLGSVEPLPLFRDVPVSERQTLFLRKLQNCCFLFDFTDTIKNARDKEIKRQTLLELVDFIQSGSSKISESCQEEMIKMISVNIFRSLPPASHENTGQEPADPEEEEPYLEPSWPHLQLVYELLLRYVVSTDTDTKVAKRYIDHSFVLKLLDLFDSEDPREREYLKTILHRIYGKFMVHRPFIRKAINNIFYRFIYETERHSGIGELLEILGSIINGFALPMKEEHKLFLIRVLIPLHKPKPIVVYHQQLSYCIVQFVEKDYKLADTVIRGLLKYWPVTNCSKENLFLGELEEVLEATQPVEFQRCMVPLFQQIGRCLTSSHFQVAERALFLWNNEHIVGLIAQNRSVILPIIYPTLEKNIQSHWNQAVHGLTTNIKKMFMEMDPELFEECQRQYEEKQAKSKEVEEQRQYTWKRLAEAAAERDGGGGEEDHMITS

[4] = molecular target: T4, GFP-B’α (Arabidopsis PP2A B’α subunit) (Arabidopsis thaliana) (UniProt O04375); assay: as above
T4 sequence: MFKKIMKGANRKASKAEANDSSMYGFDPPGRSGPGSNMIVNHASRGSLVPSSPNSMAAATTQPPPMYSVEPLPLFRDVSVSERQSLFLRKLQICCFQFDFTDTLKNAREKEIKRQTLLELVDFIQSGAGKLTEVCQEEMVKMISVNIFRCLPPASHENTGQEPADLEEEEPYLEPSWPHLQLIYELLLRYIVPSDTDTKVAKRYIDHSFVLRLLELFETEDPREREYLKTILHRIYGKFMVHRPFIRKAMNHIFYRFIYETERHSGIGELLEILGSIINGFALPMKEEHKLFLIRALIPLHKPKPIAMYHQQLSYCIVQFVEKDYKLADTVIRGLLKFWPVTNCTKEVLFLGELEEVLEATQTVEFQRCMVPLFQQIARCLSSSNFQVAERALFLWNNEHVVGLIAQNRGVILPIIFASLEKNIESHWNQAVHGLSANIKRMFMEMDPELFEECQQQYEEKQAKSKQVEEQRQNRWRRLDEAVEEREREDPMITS

[5] = molecular target: T3, GFP-B’β (Arabidopsis PP2A B’β subunit) (Arabidopsis thaliana); assay: co-IP; AvrE1-C’ wild type and k1k2 mutant with PP2A B’ subunits co-expressed in N. benthamiana (S4B Fig); which partner was pulled down is not told
[6] = molecular target: T4, GFP-B’α (Arabidopsis PP2A B’α subunit) (Arabidopsis thaliana); assay: as above

Substance	binding [1]	binding [2]	binding [3]	binding [4]	binding [5]	binding [6]
AvrE1-C’-HA (aa 889–1795) (Pseudomonas syringae pv. tomato DC3000) (domain or fragment)	binds	no binding	binds	binds	binds	binds
AvrE1-N’-HA (aa 1–898) (Pseudomonas syringae pv. tomato DC3000) (domain or fragment)	binds	–	binds	binds	–	–
